Data on three molecules can be found in PMC6858455.

Protein sequences, listed by entry. Tags and fused reporters are not part of them.
UniProt Q96KS0: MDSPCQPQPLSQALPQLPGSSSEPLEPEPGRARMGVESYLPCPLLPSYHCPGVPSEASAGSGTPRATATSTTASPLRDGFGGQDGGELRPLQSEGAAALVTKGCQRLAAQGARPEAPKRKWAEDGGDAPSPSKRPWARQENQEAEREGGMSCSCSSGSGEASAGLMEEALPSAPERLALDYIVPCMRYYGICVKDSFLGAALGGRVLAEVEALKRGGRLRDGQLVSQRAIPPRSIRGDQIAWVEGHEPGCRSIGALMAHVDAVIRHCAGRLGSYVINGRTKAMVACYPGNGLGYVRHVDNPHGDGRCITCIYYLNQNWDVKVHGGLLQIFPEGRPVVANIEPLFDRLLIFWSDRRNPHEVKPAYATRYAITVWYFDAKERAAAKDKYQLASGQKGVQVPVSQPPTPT

These are yes or no findings as the source states them, for the method shown. In cells and extracts the contact can be indirect. Some binding calls cover weakened binding; strength is not graded here.

The target of assay [1] is GST-EglN2 (UniProt Q96KS0). Put plainly: pull-down; GST-EglN proteins on glutathione beads with in vitro translated ADSL in 500 μl NETN buffer, overnight, eight NETN washes, immunoblot; only the target purified. In general terms: Immunoblotting shows a protein as a band on a membrane.
For assay [2], the target named is FLAG-EglN2-WT (UniProt Q96KS0). In words: co-IP; immunoprecipitation of EglN2-WT or -H358A from lysates of MDA-MB-231 cells transfected with plasmids and treated overnight (hypoxia 1% O2, DMOG 1 mM); immunoblot.
In assay [3] the target is EglN2, endogenous (human (endogenous in MDA-MB-231)) (UniProt Q96KS0). In words: co-IP; reciprocal immunoprecipitation of endogenous EglN2 (anti-EglN2) or ADSL (anti-ADSL) with protein G sepharose from MDA-MB-231 cells treated with DMOG; immunoblot.
Assay [4] has as its target GST-EglN2 (UniProt Q96KS0). In words: pull-down; GST-Ctrl or GST-EglN2 on glutathione beads with lysates of MDA-MB-231 cells treated overnight (hypoxia 1% O2 + 1 mM DMOG); overnight incubation, NETN washes, immunoblot; only the target purified.

B1: in vitro translated ADSL (enzyme, UniProt P30566 1-484)
chain: MAAGGDHGSPDSYRSPLASRYASPEMCFVFSDRYKFRTWRQLWLWLAEAEQTLGLPITDEQIQEMKSNLENIDFKMAAEEEKRLRHDVMAHVHTFGHCCPKAAGIIHLGATSCYVGDNTDLIILRNALDLLLPKLARVISRLADFAKERASLPTLGFTHFQPAQLTTVGKRCCLWIQDLCMDLQNLKRVRDDLRFRGVKGTTGTQASFLQLFEGDDHKVEQLDKMVTEKAGFKRAFIITGQTYTRKVDIEVLSVLASLGASVHKICTDIRLLANLKEMEEPFEKQQIGSSAMPYKRNPMRSERCCSLARHLMTLVMDPLQTASVQWFERTLDDSANRRICLAEAFLTADTILNTLQNISEGLVVYPKVIERRIRQELPFMATENIIMAMVKAGGSRQDCHEKIRVLSQQAASVVKQEGGDNDLIERIQVDAYFSPIHSQLDHLLDPSSFTGRASQQVQRFLEEEVYPLLKPYESVMKVKAELCL
For the molecule B1, the binding entry in assay [1] is given as “binds”.

B2: ADSL (in the co-immunoprecipitation of transfected MDA-MB-231 cells, Fig. 1e) (enzyme, UniProt P30566 1-484)
chain: MAAGGDHGSPDSYRSPLASRYASPEMCFVFSDRYKFRTWRQLWLWLAEAEQTLGLPITDEQIQEMKSNLENIDFKMAAEEEKRLRHDVMAHVHTFGHCCPKAAGIIHLGATSCYVGDNTDLIILRNALDLLLPKLARVISRLADFAKERASLPTLGFTHFQPAQLTTVGKRCCLWIQDLCMDLQNLKRVRDDLRFRGVKGTTGTQASFLQLFEGDDHKVEQLDKMVTEKAGFKRAFIITGQTYTRKVDIEVLSVLASLGASVHKICTDIRLLANLKEMEEPFEKQQIGSSAMPYKRNPMRSERCCSLARHLMTLVMDPLQTASVQWFERTLDDSANRRICLAEAFLTADTILNTLQNISEGLVVYPKVIERRIRQELPFMATENIIMAMVKAGGSRQDCHEKIRVLSQQAASVVKQEGGDNDLIERIQVDAYFSPIHSQLDHLLDPSSFTGRASQQVQRFLEEEVYPLLKPYESVMKVKAELCL
As for B2, the binding entry in assay [2] is “binds”.

B3: adenylosuccinate lyase (ADSL), endogenous (enzyme, UniProt P30566 1-484)
chain: MAAGGDHGSPDSYRSPLASRYASPEMCFVFSDRYKFRTWRQLWLWLAEAEQTLGLPITDEQIQEMKSNLENIDFKMAAEEEKRLRHDVMAHVHTFGHCCPKAAGIIHLGATSCYVGDNTDLIILRNALDLLLPKLARVISRLADFAKERASLPTLGFTHFQPAQLTTVGKRCCLWIQDLCMDLQNLKRVRDDLRFRGVKGTTGTQASFLQLFEGDDHKVEQLDKMVTEKAGFKRAFIITGQTYTRKVDIEVLSVLASLGASVHKICTDIRLLANLKEMEEPFEKQQIGSSAMPYKRNPMRSERCCSLARHLMTLVMDPLQTASVQWFERTLDDSANRRICLAEAFLTADTILNTLQNISEGLVVYPKVIERRIRQELPFMATENIIMAMVKAGGSRQDCHEKIRVLSQQAASVVKQEGGDNDLIERIQVDAYFSPIHSQLDHLLDPSSFTGRASQQVQRFLEEEVYPLLKPYESVMKVKAELCL
Turning to B3, the binding entry in assay [3] and in assay [4] was “binds” each time.
